Measured values published in PMC4606454.
These are yes or no findings as the source states them, for the method shown. Binding seen in cells or lysates may run through a third protein. Here binding means that the protein was enriched with, or labelled near, the bait; the list need not be complete.

Target: Flag-Myc4-TrAP (Tomato Golden Mosaic Virus (TGMV))
Assay: affinity purification with mass spectrometry; two-step immunoprecipitation (anti-FLAG M2 beads, FLAG peptide elution, anti-c-Myc agarose) from Arabidopsis plants expressing XVE-Flag-Myc4-TrAP induced with beta-estradiol; Col-0 as control

B1: endogenous KYP/SUVH4 (enzyme, UniProt Q8GZB6 1-624)
chain: MAGKRKRANAPDQTERRSSVRVQKVRQKALDEKARLVQERVKLLSDRKSEICVDDTELHEKEEENVDGSPKRRSPPKLTAMQKGKQKLSVSLNGKDVNLEPHLKVTKCLRLFNKQYLLCVQAKLSRPDLKGVTEMIKAKAILYPRKIIGDLPGIDVGHRFFSRAEMCAVGFHNHWLNGIDYMSMEYEKEYSNYKLPLAVSIVMSGQYEDDLDNADTVTYTGQGGHNLTGNKRQIKDQLLERGNLALKHCCEYNVPVRVTRGHNCKSSYTKRVYTYDGLYKVEKFWAQKGVSGFTVYKYRLKRLEGQPELTTDQVNFVAGRIPTSTSEIEGLVCEDISGGLEFKGIPATNRVDDSPVSPTSGFTYIKSLIIEPNVIIPKSSTGCNCRGSCTDSKKCACAKLNGGNFPYVDLNDGRLIESRDVVFECGPHCGCGPKCVNRTSQKRLRFNLEVFRSAKKGWAVRSWEYIPAGSPVCEYIGVVRRTADVDTISDNEYIFEIDCQQTMQGLGGRQRRLRDVAVPMNNGVSQSSEDENAPEFCIDAGSTGNFARFINHSCEPNLFVQCVLSSHQDIRLARVVLFAADNISPMQELTYDYGYALDSVHGPDGKVKQLACYCGALNCRKRLY
  binding: binds
